These are yes or no findings as the source states them, for the method shown. Some binding calls cover weakened binding; strength is not graded here. Tags and fused reporters may be left off the sequences shown.
Biological target: T1, Human recombinant PEAR1 extracellular part (platelet and endothelial aggregation receptor 1), His-tagged (human) (UniProt Q5VY43)
T1 sequence: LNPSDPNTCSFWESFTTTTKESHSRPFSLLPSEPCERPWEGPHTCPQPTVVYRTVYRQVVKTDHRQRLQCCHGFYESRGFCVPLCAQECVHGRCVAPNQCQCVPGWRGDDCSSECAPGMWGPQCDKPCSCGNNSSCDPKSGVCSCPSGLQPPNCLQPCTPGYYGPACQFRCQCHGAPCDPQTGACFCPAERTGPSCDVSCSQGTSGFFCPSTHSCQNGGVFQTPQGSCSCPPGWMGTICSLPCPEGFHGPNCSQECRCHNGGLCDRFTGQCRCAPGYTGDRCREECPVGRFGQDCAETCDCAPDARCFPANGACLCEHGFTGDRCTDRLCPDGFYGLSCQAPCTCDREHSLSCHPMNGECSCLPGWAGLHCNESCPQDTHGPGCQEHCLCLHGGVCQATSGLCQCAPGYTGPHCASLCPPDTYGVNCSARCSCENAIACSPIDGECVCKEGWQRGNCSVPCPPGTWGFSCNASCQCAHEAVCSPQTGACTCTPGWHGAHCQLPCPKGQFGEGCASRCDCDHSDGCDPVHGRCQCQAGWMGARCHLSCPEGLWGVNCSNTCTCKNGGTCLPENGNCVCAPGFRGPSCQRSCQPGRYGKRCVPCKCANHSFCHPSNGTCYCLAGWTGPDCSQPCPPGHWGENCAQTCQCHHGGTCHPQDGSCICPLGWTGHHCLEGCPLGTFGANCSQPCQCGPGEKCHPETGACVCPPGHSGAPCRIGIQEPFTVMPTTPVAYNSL
Assay: pull-down; recombinant human PEAR1 (100 nM) immobilised on Ni-NTA magnetic beads, incubated with 100 nM recombinant human CTSD, SEMA6D or LOXL2 in 50 mM NaH2PO4, 300 mM NaCl, 20 mM imidazole, pH 8.0, 1 h at room temperature; control Ni-NTA beads; immunoblotting; both purified

B1: Human Sema6D extracellular part (semaphorin 6D), recombinant (domain or fragment, UniProt Q8NFY4 21-662)
chain: VSFPEDDEPLNTVDYHYSRQYPVFRGRPSGNESQHRLDFQLMLKIRDTLYIAGRDQVYTVNLNEMPKTEVIPNKKLTWRSRQQDRENCAMKGKHKDECHNFIKVFVPRNDEMVFVCGTNAFNPMCRYYRLSTLEYDGEEISGLARCPFDARQTNVALFADGKLYSATVADFLASDAVIYRSMGDGSALRTIKYDSKWIKEPHFLHAIEYGNYVYFFFREIAVEHNNLGKAVYSRVARICKNDMGGSQRVLEKHWTSFLKARLNCSVPGDSFFYFDVLQSITDIIQINGIPTVVGVFTTQLNSIPGSAVCAFSMDDIEKVFKGRFKEQKTPDSVWTAVPEDKVPKPRPGCCAKHGLAEAYKTSIDFPDETLSFIKSHPLMDSAVPPIADEPWFTKTRVRYRLTAISVDHSAGPYQNYTVIFVGSEAGMVLKVLAKTSPFSLNDSVLLEEIEAYNHAKCSAENEEDKKVISLQLDKDHHALYVAFSSCIIRIPLSRCERYGSCKKSCIASRDPYCGWLSQGSCGRVTPGMLAEGYEQDTEFGNTAHLGDCHEILPTSTTPDYKIFGGPTSDMEVSSSSVTTMASIPEITPKVIDTWRPKLTSSRKFVVQDDPNTSDFTDPLSGIPKGVRWEVQSGESNQMVHMN
B1 was tested, and the binding was “binds”.

From PMC12581312, “Lung endothelial PEAR1 induces tumor cell dormancy” (Molecular Cancer, 2025)
